PubChem BioAssay AID743121, NCATS – 2013

- Assay: 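Partners whose loss is lethal together with topoisomerase I blockade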 (primary screen)
- Cells: MDA-MB-231 cells, a human breast cancer line
- Knock-down reagent: single siRNA against human genes, 20 nM siRNA (0.8 pmol per well)
- Timing: 120 h (drug added 48 h after transfection, read 72 h later)
- Challenge: camptothecin 20 nM (about EC30) for 72 h; vehicle 0.1% DMSO in parallel plates
- Measurement: 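Cell viability by ATP luminescence (CellTiter-Glo) as % of non-targeting siRNA wells, and the log2 ratio of viability without drug over viability with camptothecin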
- Reading the numbers: log2 vehicle/camptothecin viability: higher = stronger sensitisation to camptothecin; viability with camptothecin: higher = more viable cells
- Rule for the call: 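Each gene scored by redundant siRNA activity (RSA) over its individual siRNA ratios; a gene is called active at p < 0.001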
This is one part, drawn at random, of about 26,000 reagents tested. Of all reagents, 167 (0.63%) are marked active. 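Calls are per gene from RSA p-values that are not deposited; an individual active-marked siRNA can sensitise only weakly.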 Reagents against one gene are numbered here. Not all columns of the deposit are shown.

With knock-down of PRDX2 #1 the results were log2 vehicle/camptothecin viability -0.744; viability with camptothecin (% of control) = 75; inactive.
Knock-down of PRDX2 #2 gave: log2 vehicle/camptothecin viability -0.52; viability with camptothecin (% of control) = 45.5; inactive.
Knock-down of PRDX2 #3 came out at: log2 vehicle/camptothecin viability 0.0914; viability with camptothecin (% of control) = 65.1; inactive.
For PRDX2 #4, the entry reads log2 vehicle/camptothecin viability -0.173; viability with camptothecin (% of control) = 98.2; inactive.
PRDX2 #5 gave log2 vehicle/camptothecin viability -0.305; viability with camptothecin (% of control) = 67.8; inactive.
Silencing of PRDX2 #6 resulted in: log2 vehicle/camptothecin viability -0.345; viability with camptothecin (% of control) = 67.7; inactive.
With knock-down of PRDX2 #7, the record shows log2 vehicle/camptothecin viability 0.344; viability with camptothecin (% of control) = 2.88; inactive.
PRDX2 #8 gave log2 vehicle/camptothecin viability -0.486; viability with camptothecin (% of control) = 73.3; inactive.
USP31 #1 showed log2 vehicle/camptothecin viability -0.345; viability with camptothecin (% of control) = 96.9; inactive.
After knock-down of USP31 #2, the record shows log2 vehicle/camptothecin viability -0.109; viability with camptothecin (% of control) = 96; inactive.
USP31 #3 showed log2 vehicle/camptothecin viability -0.418; viability with camptothecin (% of control) = 54.4; inactive.
Against USP31 #4, the values are log2 vehicle/camptothecin viability 0.585; viability with camptothecin (% of control) = 25.2; inactive.
With knock-down of TIRAP #1, the screen gave log2 vehicle/camptothecin viability -0.389; viability with camptothecin (% of control) = 94.8; inactive.
With knock-down of TIRAP #2, the screen gave log2 vehicle/camptothecin viability -0.344; viability with camptothecin (% of control) = 80; inactive.
Knock-down of TIRAP #3 came out at: log2 vehicle/camptothecin viability 0.456; viability with camptothecin (% of control) = 54.9; inactive.
Against TIRAP #4, the entry reads log2 vehicle/camptothecin viability -0.401; viability with camptothecin (% of control) = 107; inactive.
GDAP1 #1 showed log2 vehicle/camptothecin viability -0.471; viability with camptothecin (% of control) = 53.1; inactive.
After knock-down of GDAP1 #2 the results were log2 vehicle/camptothecin viability -0.589; viability with camptothecin (% of control) = 103; inactive.
Knock-down of GDAP1 #3 resulted in: log2 vehicle/camptothecin viability -0.344; viability with camptothecin (% of control) = 65.8; inactive.
Against GDAP1 #4, the entry reads log2 vehicle/camptothecin viability 0.276; viability with camptothecin (% of control) = 14.4; inactive.
Against EHMT2 #1, the entry reads log2 vehicle/camptothecin viability 0.111; viability with camptothecin (% of control) = 34.1; inactive.
After knock-down of EHMT2 #2, the record shows log2 vehicle/camptothecin viability -0.429; viability with camptothecin (% of control) = 96.3; inactive.
With knock-down of EHMT2 #3 the results were log2 vehicle/camptothecin viability -0.252; viability with camptothecin (% of control) = 44.4; inactive.
EHMT2 #4 scored log2 vehicle/camptothecin viability -0.229; viability with camptothecin (% of control) = 107; inactive.
With knock-down of CHD1 #1, the screen gave log2 vehicle/camptothecin viability 0.0175; viability with camptothecin (% of control) = 70.2; inactive.
CHD1 #2 scored log2 vehicle/camptothecin viability -0.122; viability with camptothecin (% of control) = 125; inactive.
Depletion of CHD1 #3 came out at: log2 vehicle/camptothecin viability -0.21; viability with camptothecin (% of control) = 82.8; inactive.
After knock-down of CHD1 #4 the results were log2 vehicle/camptothecin viability -0.413; viability with camptothecin (% of control) = 68.5; inactive.
Against POMC #1, the entry reads log2 vehicle/camptothecin viability 0.0866; viability with camptothecin (% of control) = 58.3; inactive.
After knock-down of POMC #2 the results were log2 vehicle/camptothecin viability -0.212; viability with camptothecin (% of control) = 70.8; inactive.
POMC #3 showed log2 vehicle/camptothecin viability -0.337; viability with camptothecin (% of control) = 94.4; inactive.
With knock-down of POMC #4, the record shows log2 vehicle/camptothecin viability -0.535; viability with camptothecin (% of control) = 69.1; inactive.
Against IL22RA1 #1, the values are log2 vehicle/camptothecin viability -0.0737; viability with camptothecin (% of control) = 112; inactive.
Depletion of IL22RA1 #2 gave: log2 vehicle/camptothecin viability -0.0538; viability with camptothecin (% of control) = 84.2; inactive.
Silencing of IL22RA1 #3 came out at: log2 vehicle/camptothecin viability -0.188; viability with camptothecin (% of control) = 75.8; inactive.
IL22RA1 #4 showed log2 vehicle/camptothecin viability -0.232; viability with camptothecin (% of control) = 57.6; inactive.
GBE1 #1 gave log2 vehicle/camptothecin viability 0.605; viability with camptothecin (% of control) = 44.9; inactive.
Knock-down of GBE1 #2 came out at: log2 vehicle/camptothecin viability 0.358; viability with camptothecin (% of control) = 72.6; inactive.
For GBE1 #3, the entry reads log2 vehicle/camptothecin viability 0.16; viability with camptothecin (% of control) = 103; inactive.
GBE1 #4 gave log2 vehicle/camptothecin viability -0.118; viability with camptothecin (% of control) = 72.4; inactive.
Depletion of DICER1 #1 came out at: log2 vehicle/camptothecin viability -0.18; viability with camptothecin (% of control) = 73.8; inactive.
After knock-down of DICER1 #2, the record shows log2 vehicle/camptothecin viability 0.129; viability with camptothecin (% of control) = 91.7; inactive.
After knock-down of DICER1 #3, the screen gave log2 vehicle/camptothecin viability 0.0489; viability with camptothecin (% of control) = 85.7; inactive.
DICER1 #4 showed log2 vehicle/camptothecin viability 0.646; viability with camptothecin (% of control) = 53.4; inactive.
SERPINB12 #1 scored log2 vehicle/camptothecin viability -0.187; viability with camptothecin (% of control) = 116; inactive.
Depletion of SERPINB12 #2 came out at: log2 vehicle/camptothecin viability -0.29; viability with camptothecin (% of control) = 120; inactive.
Against SERPINB12 #3 the deposit lists log2 vehicle/camptothecin viability 0.0876; viability with camptothecin (% of control) = 45.4; inactive.

Records above whose gene name starts with C or c:
CHD1 #1 — log2 vehicle/camptothecin viability: 0.0175; viability with camptothecin (% of control): 70.2; call: inactive
CHD1 #2 — log2 vehicle/camptothecin viability: -0.122; viability with camptothecin (% of control): 125; call: inactive
CHD1 #3 — log2 vehicle/camptothecin viability: -0.21; viability with camptothecin (% of control): 82.8; call: inactive
CHD1 #4 — log2 vehicle/camptothecin viability: -0.413; viability with camptothecin (% of control): 68.5; call: inactive
